PubChem BioAssay AID504795 – Drosophila RNAi Screening Center – 2011

- Screen: 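Genes required for normal axon extension and glial cell shape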 (primary screen)
- System: primary Drosophila neurons and glia
- Knock-down reagent: long dsRNA against Drosophila genes, 250 ng dsRNA per well
- Time to read-out: one week
- Measured: 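Descriptive morphology terms assigned by visual inspection of live automated images of GFP-marked cells, taken one week after adding 250 ng dsRNA per well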
This is not the whole library: the list holds selected reagents. 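Every listed dsRNA shows some phenotype; how reagents were selected for listing is not stated.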 Reagents against one gene are numbered here. Names joined by + are all predicted targets of the reagent. Further read-outs or replicates are left out here. No sequences are given here.

phenotype seen, replicate 1, by target and reagent
CG34355 (GeneID 42820): #1 abnormal cell clusters; #2 too many neurite branches
MED14 (GeneID 38073): #1 sheet-like cell extensions
siz (GeneID 40327): #1 fewer cells
Abp1 (GeneID 39520): #1 sheet-like cell extensions
OtopLc (GeneID 7354434): #1 axon bundles split apart
Fer1 (GeneID 2768661): #1 too many neurite branches; #2 too many neurite branches
Cpr62Ba (GeneID 38239): #1 beaded; swollen axons
brwl (GeneID 34275): #1 abnormal cell clusters; #2 sheet-like cell extensions
Grip (GeneID 50391): #1 axon bundles split apart; #2 axon bundles split apart
CG13385 (GeneID 34164): #1 abnormal cell clusters
RpS9 (GeneID 39108): #1 reduced axon outgrowth
Proc (GeneID 250710): #1 too many neurite branches
htt (GeneID 43392): #1 abnormal cell clusters
Targ (GeneID 36630): #1 fewer cells
CG42531 (GeneID 8673972): #1 axon bundles split apart
Fadd (GeneID 42594): #1 abnormal cell clusters
CG4000 (GeneID 42451): #1 abnormal cell clusters; #2 sheet-like cell extensions
seq (GeneID 3772396): #1 beaded; swollen axons
CG42747 (GeneID 38732): #1 fewer cells
lili (GeneID 42956): #1 too many neurite branches
Vm26Aa (GeneID 33829): #1 reduced axon outgrowth
CG18327 (GeneID 36567): #1 axon bundles split apart
CG13722 (GeneID 38555): #1 axon bundles split apart
BNIP3 (GeneID 40278): #1 abnormal cell clusters
Phae1 (GeneID 34637): #1 axon bundles split apart
ZAP3 (GeneID 31942): #1 too many neurite branches
Fer1HCH (GeneID 46415): #1 axon bundles split apart
Burs (GeneID 42560): #1 abnormal cell clusters
RpLP0-like (GeneID 36058): #1 too many neurite branches
CG5079 (GeneID 43089): #1 cell fragments present
CG9304 (GeneID 37500): #1 abnormal cell clusters
Sec61beta (GeneID 46080): #1 axon bundles split apart; #2 axon bundles split apart
CG14562 (GeneID 40439): #1 reduced axon outgrowth
RpL22-like (GeneID 37684): #1 axon bundles split apart
Hesr (GeneID 32800): #1 sheet-like cell extensions
Smr (GeneID 32225): #1 beaded; swollen axons
tgy (GeneID 32896): #1 reduced axon outgrowth
CG12934 (GeneID 36124): #1 axon bundles split apart
CG30089 (GeneID 36736): #1 fewer cells; #2 fewer cells
Ccp84Ad (GeneID 40822): #1 too many neurite branches
mys (GeneID 44885): #1 abnormal cell clusters
Cln3 (GeneID 39981): #1 sheet-like cell extensions

Entries listed so far whose gene name begins with B or b:
phenotype seen, replicate 1, by target and reagent
brwl (GeneID 34275): #1 abnormal cell clusters; #2 sheet-like cell extensions
BNIP3 (GeneID 40278): #1 abnormal cell clusters
Burs (GeneID 42560): #1 abnormal cell clusters

Further results:
phenotype seen, replicate 1, by target and reagent
CG42534 (GeneID 43298): #1 axon bundles split apart
mthl6 (GeneID 38839): #1 axon bundles split apart
l(2)37Cd (GeneID 35193): #1 too many neurite branches
Smyd4-1 (GeneID 35985): #1 axon bundles split apart
CG31259 (GeneID 41010): #1 abnormal cell clusters
Nup153 (GeneID 32630): #1 axon bundles split apart
CR31958 (GeneID 33603): #1 axon bundles split apart
CG31122 (GeneID 42221): #1 too many neurite branches
Lim3 (GeneID 35184): #1 abnormal cell clusters
Gr64a (GeneID 117481): #1 too many neurite branches
CG5347 (GeneID 32403): #1 too many neurite branches
hgo (GeneID 34552): #1 too many neurite branches
CAH3 (GeneID 31804): #1 axon bundles split apart
CG5327 (GeneID 37138): #1 axon bundles split apart
CG13016 (GeneID 36562): #1 fewer cells
Dsp1 (GeneID 117294): #1 abnormal cell clusters
eIF3l (GeneID 39386): #1 reduced axon outgrowth
mtDNA-helicase (GeneID 34307): #1 too many neurite branches
CG12511 (GeneID 33797): #1 cell fragments present
sav (GeneID 252554): #1 axon bundles split apart
CG31534 (retired record) (GeneID 40585): #1 fewer cells
CG7945 + yellow-k: #1 axon bundles split apart
Pngl (GeneID 35527): #1 abnormal cell clusters
myd (GeneID 42303): #1 sheet-like cell extensions
Dph5 (GeneID 42663): #1 too many neurite branches
COX6AL2 (GeneID 40066): #1 abnormal cell clusters
sni (GeneID 31761): #1 sheet-like cell extensions
CG34168 (GeneID 50457): #1 axon bundles split apart
CG42523 (GeneID 8674082): #1 abnormal cell clusters
Slmap (GeneID 3355127): #1 too many neurite branches
Rpt6R (GeneID 43635): #1 axon bundles split apart
CG9166 (GeneID 38161): #1 bundles split and too many branches
CG17167 (GeneID 3354991): #1 abnormal cell clusters
QIL1 (GeneID 39948): #1 sheet-like cell extensions
CG6628 (GeneID 39183): #1 too many neurite branches
pre-mod(mdg4)-W + pre-mod(mdg4)-Y + mod(mdg4) + 3 more: #1 abnormal cell clusters
CG12935 + Nop10: #1 too many neurite branches
Bet5 (GeneID 43590): #1 sheet-like cell extensions
pAbp (GeneID 37070): #1 too many neurite branches
RpS15 (GeneID 36851): #1 beaded; swollen axons
CG30339 (GeneID 246549): #1 abnormal cell clusters
CG33268 (GeneID 2768979): #1 too many neurite branches
RpL23 (GeneID 37628): #1 axon bundles split apart
CG11155 (GeneID 43822): #1 too many neurite branches
dysc (GeneID 39533): #1 abnormal cell clusters; #2 fewer cells
TwdlK (GeneID 43205): #1 sheet-like cell extensions
crn (GeneID 31208): #1 cell fragments present; #2 axon bundles split apart
Cyp18a1 (GeneID 32858): #1 too many neurite branches
PIG-S (GeneID 42979): #1 too many neurite branches
CG32021 (retired record) (GeneID 317825): #1 axon bundles split apart
Tb (GeneID 43212): #1 too many neurite branches
dpr11 (GeneID 40800): #1 too many neurite branches
Buffy (GeneID 36251): #1 axon bundles split apart
RpLP0 (GeneID 40451): #1 axon bundles split apart; #2 too many neurite branches
TwdlX (GeneID 318094): #1 cell fragments present
Nedd8 (GeneID 35151): #1 axon bundles split apart
Mfe2 (GeneID 32582): #1 too many neurite branches
